Measurements taken from PubChem BioAssay AID1671190 (National Center for Advancing Translational Sciences (NCATS), 2021).
The campaign covered roughly 580,000 compounds. About 6,100 (1.1%) were called active. This list was built around the results that the source calls inconclusive (neither active nor inactive); the mix of calls is not that of the screen. The call rests on the fitted dose curve; in most records, active means well fitted inhibition curve with a large enough effect; inconclusive means small, poorly fitted or top-dose-only effect, or another doubt; inactive means no such curve, though single readings can be large or run the other way. Potencies beside an inconclusive call are fits to weak or partial responses and may not hold up.

Sequences of proteins named here, by UniProt entry; tags and fusion partners are left off.
UniProt P18054, whole entry, looked up: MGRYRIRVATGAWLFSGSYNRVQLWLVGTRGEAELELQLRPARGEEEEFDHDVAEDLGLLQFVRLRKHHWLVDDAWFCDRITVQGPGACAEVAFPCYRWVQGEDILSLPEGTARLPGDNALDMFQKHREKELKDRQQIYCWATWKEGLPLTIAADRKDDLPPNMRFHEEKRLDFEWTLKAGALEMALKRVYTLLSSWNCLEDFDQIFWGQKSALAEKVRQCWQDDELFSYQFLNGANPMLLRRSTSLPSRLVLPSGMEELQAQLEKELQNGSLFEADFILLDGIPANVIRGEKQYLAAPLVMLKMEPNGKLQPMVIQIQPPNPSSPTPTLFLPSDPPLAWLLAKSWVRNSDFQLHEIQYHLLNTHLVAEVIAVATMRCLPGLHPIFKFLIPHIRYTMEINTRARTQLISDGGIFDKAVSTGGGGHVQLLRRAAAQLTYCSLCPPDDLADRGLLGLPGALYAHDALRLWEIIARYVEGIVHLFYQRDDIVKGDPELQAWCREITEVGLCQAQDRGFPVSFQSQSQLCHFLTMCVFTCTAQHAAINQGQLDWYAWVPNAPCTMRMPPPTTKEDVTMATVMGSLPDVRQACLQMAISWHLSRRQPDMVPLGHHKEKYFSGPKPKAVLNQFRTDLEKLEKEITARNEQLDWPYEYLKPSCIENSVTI

Target: Polyunsaturated fatty acid lipoxygenase ALOX12 (Homo sapiens) (UniProt P18054)
Test: Primary qHTS assay for inhibitors of human arachidonate 12S-lipoxygenase (ALOX12): Round 2
Conditions: purified 12hLO, xylenol orange hydroperoxide absorbance; series mostly up to 108 µM
Outline: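 Hydroperoxide product was detected by ferrous iron/xylenol orange as the 573 to 405 nm absorbance ratio. Arachidonic acid at 40 uM (final) was turned over for 30 min at room temperature by 150 nM human 12hLO, pH 7.0 Hepes buffer, after 15 min compound preincubation.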
Potency means the concentration at half of the fitted maximal effect.

Row | Structure (SMILES) | Potency
1 | COc1ccc(-c2sc3ccccc3c2-c2ccc(OCCN(C)C)cc2)cc1 | inconclusive: 56.2 µM [inhibitor, partial curve, poor fit]
2 | O=S1(=O)CC(N2CCN(CCO)CC2)CN1Cc1cn(Cc2ccccc2)nn1 (configuration not stated) | inconclusive: 1 µM [inhibitor, full curve]
3 | N#Cc1ccsc1NC(=O)COc1ccc(-c2nnco2)cc1 | inactive
4 | Cc1ccc(C(=O)NCCC2=CCCCC2)s1 | inconclusive: 39.8 µM [inhibitor, partial curve]
5 | CN1CCN(CCc2ccc(Cl)c(Cl)c2)CC1 | inconclusive: 31.6 µM [inhibitor, single point]
6 | CCN(CC(=O)NC1CCCC1)C(C)c1ccc(C#N)cc1 (configuration not stated) | inactive
7 | CC(=O)O[C@]1(C(C)=O)CC[C@H]2[C@@H]3C=C(Cl)C4=CC(=O)CC[C@]4(C)[C@H]3CC[C@@]21C | inactive
8 | CC1CCC2(CC1)OCC(C(=O)NC1CCCCC1)N2C(=O)c1ccc(F)cc1 (configuration not stated) | inactive
9 | COC(=O)c1ccc2nc(-c3ccc(OC)c(OC)c3)c(Cc3ccc(C)cc3)n2c1 | inconclusive: 35.5 µM [inhibitor, partial curve]
10 | CCn1cc(C(=O)NCCc2ccc(OC)c(OC)c2)c(=O)c2cc(S(=O)(=O)N(C)C3CCCCC3)ccc21 | inconclusive: 50.1 µM [inhibitor, partial curve, poor fit]
11 | Cc1ccc(NC(=O)c2oc(=O)c3ccccc3c2-c2ccccc2)c(C)c1 | inactive
12 | C/C(=N/Nc1ccc(C(=O)O)cc1)c1ccc2c(c1)Nc1ccccc1S2 | active: 28.2 µM
13 | NC(=O)NC(=O)COC(=O)c1cccnc1Nc1ccccc1F | inactive
14 | O=C(CC1Nc2ccccc2NC1=O)NC1CCCCC1 (configuration not stated) | inconclusive: 11.2 µM [inhibitor, full curve, poor fit]
15 | CC(=O)Nc1cc(-c2ccc(S(C)(=O)=O)cc2)cn2c(-c3ccc(F)cc3)cnc12 | inconclusive: 126 µM [inhibitor, single point]
16 | CC(C)c1ccc(NC(=O)CN2C(=O)NC(Cc3c[nH]c4ccccc34)C2=O)cc1 (configuration not stated) | inconclusive: 89.1 µM [inhibitor, single point]
17 | O=C(Nc1ccc(OC(F)(F)F)cc1)Nc1cccc([N+](=O)[O-])c1 | inconclusive: 44.7 µM [inhibitor, partial curve, poor fit]
18 | O=[N+]([O-])c1cccc(COc2cccc(CN3CCCC3)c2)c1 | inconclusive: 126 µM [inhibitor, single point]
19 | CN1C(=O)Cc2cc(C(=O)NC3CCCCC3)ccc21 | inactive
20 | CC(C)c1cccc(-c2csc(C(O)c3ccc(F)cc3)n2)c1 (configuration not stated) | inconclusive: 50.1 µM [inhibitor, partial curve, poor fit]
21 | COc1ccc(CNc2nc3c(c(=O)[nH]c(=O)n3C)n2Cc2cccc(C)c2)cc1 | inactive
22 | CCN(C(=O)c1nn(C)c(=O)c2ccccc12)c1nc2ccccc2s1 | inactive
23 | COc1ccc(CNC(=O)c2ccc(-c3nc(CSc4ccc(C)cc4)c(C)o3)cc2)c(OC)c1 | inconclusive: 39.8 µM [inhibitor, full curve, poor fit]

Row | Structure (SMILES) | Potency
24 | COc1ccc(-c2cc(Nc3ccc(Br)cc3)nc(C)n2)cc1 | inconclusive: 44.7 µM [inhibitor, partial curve]
25 | COCCn1c(=O)c(-c2ccc(OC)cc2)nc2cnc(N3CCN(C)CC3)nc21 | inconclusive: 39.8 µM [inhibitor, single point]
26 | CCNC(=S)N/N=C/c1cccc(C)c1 | inconclusive: 44.7 µM [inhibitor, single point]
27 | C=CCNc1nnc(SCc2coc(-c3ccccc3)n2)s1 | inactive
28 | CCOC(=O)c1cnn(-c2ccccc2)c1NC(=O)CN1CCCCC1 | inconclusive: 79.4 µM [inhibitor, partial curve, poor fit]
29 | CCCCSCC(O)CSc1nc(-c2ccccc2)cc(-c2ccc(C)cc2)c1C#N (configuration not stated) | inconclusive: 44.7 µM [inhibitor, partial curve, poor fit]
30 | COc1cccc(C2C(C(=O)c3cc4cccc(OC)c4o3)=C(O)C(=O)N2c2cc(C)on2)c1OC (configuration not stated) | inconclusive: 3.16 µM [inhibitor, full curve, poor fit]
31 | Cc1ccc(NC(=O)Cc2nn(C)c(=O)c3ccccc23)cc1 | inconclusive: 0.199 µM [inhibitor, full curve, poor fit]
32 | O=C(Nc1nnc(SCc2ccccc2F)s1)C1=COCCO1 | inconclusive: 4.47 µM [inhibitor, full curve, poor fit]
33 | O=C(NCc1ccco1)c1ccc(F)c(S(=O)(=O)N2CCCCC2)c1 | inconclusive: 141 µM [inhibitor, single point]
34 | CCOc1ccc(CN2CCCC2c2cccc(C)c2)cc1 (configuration not stated) | inconclusive: 100 µM [inhibitor, single point]
35 | COc1ccc(OC)c(S(=O)(=O)N2CCC(C(=O)NCc3ccncc3)CC2)c1 | inactive
36 | CCc1ccc(/C=C/C(=O)c2c(C)cc(C)[nH]c2=O)cc1 | inactive
37 | CCN1CCCC(OC(=O)c2cc(-c3ccccc3Cl)nc3ccccc23)C1 (configuration not stated) | inconclusive: 28.2 µM [inhibitor, partial curve]
38 | Cc1ccc(NC(=O)CS(=O)CC(=O)Nc2ccccc2-c2ccc(C)o2)cc1 (configuration not stated) | inconclusive: 28.2 µM [inhibitor, partial curve, poor fit]
39 | O=C(COc1ccc(S(=O)(=O)NCc2ccccc2)cc1Cl)NCc1ccncc1 | inconclusive: 3.98 µM [inhibitor, full curve, poor fit]
40 | Cc1cc(S(=O)(=O)N2CCC(NS(=O)(=O)c3cccs3)CC2)ccc1Br | inactive
41 | COc1ccc(C2c3c(n(C)c4ccccc34)C(=O)N2CC(=O)Nc2cccc(Cl)c2)cc1 (configuration not stated) | inconclusive: 79.4 µM [inhibitor, partial curve, poor fit]
42 | Cc1ccc(C)c(S(=O)(=O)NCCCN2CCOCC2)c1 | inconclusive: 39.8 µM [inhibitor, partial curve, poor fit]
43 | O=C(Cc1cccc(F)c1)N1CCC2(CCC(=O)N(CC3CC3)CC2)CC1 | inactive
44 | CC(=O)N1CCN(c2ccc(NCc3ccc(-c4ccc(Br)cc4)o3)cc2)CC1 | inconclusive: 44.7 µM [inhibitor, partial curve, poor fit]
45 | [O-][n+]1ccccc1SCC1CCCCC1 | inconclusive: 50.1 µM [inhibitor, partial curve, poor fit]
46 | N=C1S/C(=C\c2ccco2)C(=O)N1c1ccc2c(c1)OCO2 | inconclusive: 50.1 µM [inhibitor, partial curve, poor fit]

Some values from the results shown.
`C=CCNc1nnc(SCc2coc(-c3ccccc3)n2)s1` – Potency: inactive
`Cc1ccc(C)c(S(=O)(=O)NCCCN2CCOCC2)c1` – Potency: inconclusive: 39.8 µM [inhibitor, partial curve, poor fit]

The listing continues:

Row | Structure (SMILES) | Potency
47 | COc1ccc(NC(=O)c2nc(S(=O)(=O)Cc3cccc(C)c3)ncc2Cl)c(OC)c1 | inactive
48 | COc1ccc(Cc2n[nH]c(=S)n2NC(=O)Nc2ccc(Cl)c(Cl)c2)cc1 | inconclusive: 15.8 µM [inhibitor, full curve]
49 | CCCCCCCC1CCC(c2ccc(C(=O)CCN(C)C)cc2)CC1 (configuration not stated) | inconclusive: 44.7 µM [inhibitor, partial curve, poor fit]
50 | CNC[C@@H]1Oc2ccc(NC(=O)Nc3ccccc3)cc2C(=O)N([C@@H](C)CO)C[C@H]1C | inconclusive: 158 µM [inhibitor, partial curve, poor fit]
51 | O=C(O)c1ccc(N/N=C/c2cn(-c3ccccc3)nc2-c2cccs2)cc1 | inconclusive: 39.8 µM [inhibitor, partial curve, poor fit]
52 | COc1ccc2nc(CO[C@H]3CN(C4CCN(C(C)=O)CC4)C[C@H]3F)[nH]c2c1 | inactive
53 | COc1ccc(Br)cc1CNc1ccc(S(N)(=O)=O)cc1 | inconclusive: 5.62 µM [inhibitor, full curve, poor fit]
54 | Cc1ccc(N2CCC(NC(=O)c3ccc(C)cc3C)C2=O)cc1 (configuration not stated) | inconclusive: 31.6 µM [inhibitor, full curve, poor fit]
55 | Cc1cccn2c(=O)c(/C=C(\C#N)C(=O)NC3CCS(=O)(=O)C3)c(N3CC(C)OC(C)C3)nc12 (configuration not stated) | inactive
56 | COc1cn(-c2ccccc2)nc1C(=O)OC(C)C(=O)NC1CCCC1 (configuration not stated) | inconclusive: 56.2 µM [inhibitor, partial curve, poor fit]
57 | Cc1nc(SCc2nc3cc(Cl)c(F)cc3[nH]2)c2oc3ccccc3c2n1 | inactive
58 | CCCNC(=O)CNC(=O)c1cc(=O)[nH]c2ccccc12 | inconclusive: 44.7 µM [inhibitor, single point]
59 | CCc1ccc(C2CC(c3ccc(Cl)cc3)=NNC2=O)cc1 (configuration not stated) | inactive
60 | COc1cc(C2CC(=O)Nc3c2ncn3-c2cccc(C(F)(F)F)c2)cc2c1OCO2 (configuration not stated) | inconclusive: 31.6 µM [inhibitor, partial curve, poor fit]
61 | NCc1cccc(-c2ccccn2)c1 | inconclusive: 5.62 µM [inhibitor, full curve, poor fit]
62 | COc1ccc([N+](=O)[O-])cc1NC(=O)COC(=O)Cn1cnc2ccccc2c1=O | inconclusive: 79.4 µM [inhibitor, single point]
63 | COCCn1c(C)nnc1-c1cc(-c2ccnc(OC)c2)ccn1 | inconclusive: 6.31 µM [inhibitor, single point]
64 | CC(O)Cc1nsc(NC(=O)c2cccs2)n1 (configuration not stated) | inactive
65 | Cc1cc(C2CCCN2C(=O)c2ccc(-c3ccccc3Cl)o2)no1 (configuration not stated) | inactive
66 | C=C(CN(C)C)C(=O)c1ccc2c(c1)OCO2 | inactive
67 | Cc1ccc(S(=O)(=O)Cc2nc(-c3ccc(C(=O)NCCN4CCCCCC4)cc3)oc2C)cc1 | inconclusive: 35.5 µM [inhibitor, partial curve, poor fit]

3 structures from above, ordered by SMILES length, rising:
Row | Structure (SMILES) | Potency
64 | CC(O)Cc1nsc(NC(=O)c2cccs2)n1 (configuration not stated) | inactive
57 | Cc1nc(SCc2nc3cc(Cl)c(F)cc3[nH]2)c2oc3ccccc3c2n1 | inactive
48 | COc1ccc(Cc2n[nH]c(=S)n2NC(=O)Nc2ccc(Cl)c(Cl)c2)cc1 | inconclusive: 15.8 µM [inhibitor, full curve]
